Assay [1] concerns the target FACT consisting of Spt16 and GST-tagged Pob3 (Saccharomyces cerevisiae) (UniProt P32558+Q04636). Kind of assay: pull-down; 0.5 μM GST-Pob3Spt16 as bait with 1 μM replisome factor, on ice 30 min, immobilised on glutathione agarose 90 min at 4°C, washed with buffer G (50 mM HEPES-NaOH pH 7.6, 300 mM NaCl, 0.05% NP-40), eluted with glutathione, SDS-PAGE; both purified.
Assay [2] deals with T1, GST-tagged Tof1_N (1-638 aa) (Saccharomyces cerevisiae) (UniProt P53840).
T1 sequence: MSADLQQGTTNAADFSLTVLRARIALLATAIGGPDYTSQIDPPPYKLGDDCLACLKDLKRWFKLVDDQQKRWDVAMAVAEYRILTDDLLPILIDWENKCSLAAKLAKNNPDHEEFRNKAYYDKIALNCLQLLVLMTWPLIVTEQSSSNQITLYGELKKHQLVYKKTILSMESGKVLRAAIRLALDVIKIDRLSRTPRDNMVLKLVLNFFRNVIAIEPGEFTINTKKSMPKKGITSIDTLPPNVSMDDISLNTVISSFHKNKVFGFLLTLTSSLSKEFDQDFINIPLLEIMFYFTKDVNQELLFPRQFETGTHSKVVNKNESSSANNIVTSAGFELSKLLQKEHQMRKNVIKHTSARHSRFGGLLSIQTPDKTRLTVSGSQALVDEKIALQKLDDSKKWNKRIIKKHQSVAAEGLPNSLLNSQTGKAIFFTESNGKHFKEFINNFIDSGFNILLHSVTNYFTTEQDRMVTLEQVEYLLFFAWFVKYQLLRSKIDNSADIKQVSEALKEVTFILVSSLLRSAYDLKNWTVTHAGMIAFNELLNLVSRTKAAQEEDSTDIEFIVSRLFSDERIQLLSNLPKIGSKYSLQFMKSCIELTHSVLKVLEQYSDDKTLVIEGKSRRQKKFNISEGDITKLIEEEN
Kind of assay: pull-down; 1.5 μM GST fusion proteins (Tof1_N, Tof1_M, Tof1_C, Csm3) as bait on glutathione agarose, 3 μM fl FACT or FACT truncations as prey, 90 min at 4°C, washed with buffer G (300 mM NaCl), eluted with glutathione, SDS-PAGE; both purified.

Protein sequences, listed by entry. Tags and fused reporters are not part of them. Lines headed by an entry give the natural chain unless they say otherwise; changes in a name come on top.
UniProt P32558: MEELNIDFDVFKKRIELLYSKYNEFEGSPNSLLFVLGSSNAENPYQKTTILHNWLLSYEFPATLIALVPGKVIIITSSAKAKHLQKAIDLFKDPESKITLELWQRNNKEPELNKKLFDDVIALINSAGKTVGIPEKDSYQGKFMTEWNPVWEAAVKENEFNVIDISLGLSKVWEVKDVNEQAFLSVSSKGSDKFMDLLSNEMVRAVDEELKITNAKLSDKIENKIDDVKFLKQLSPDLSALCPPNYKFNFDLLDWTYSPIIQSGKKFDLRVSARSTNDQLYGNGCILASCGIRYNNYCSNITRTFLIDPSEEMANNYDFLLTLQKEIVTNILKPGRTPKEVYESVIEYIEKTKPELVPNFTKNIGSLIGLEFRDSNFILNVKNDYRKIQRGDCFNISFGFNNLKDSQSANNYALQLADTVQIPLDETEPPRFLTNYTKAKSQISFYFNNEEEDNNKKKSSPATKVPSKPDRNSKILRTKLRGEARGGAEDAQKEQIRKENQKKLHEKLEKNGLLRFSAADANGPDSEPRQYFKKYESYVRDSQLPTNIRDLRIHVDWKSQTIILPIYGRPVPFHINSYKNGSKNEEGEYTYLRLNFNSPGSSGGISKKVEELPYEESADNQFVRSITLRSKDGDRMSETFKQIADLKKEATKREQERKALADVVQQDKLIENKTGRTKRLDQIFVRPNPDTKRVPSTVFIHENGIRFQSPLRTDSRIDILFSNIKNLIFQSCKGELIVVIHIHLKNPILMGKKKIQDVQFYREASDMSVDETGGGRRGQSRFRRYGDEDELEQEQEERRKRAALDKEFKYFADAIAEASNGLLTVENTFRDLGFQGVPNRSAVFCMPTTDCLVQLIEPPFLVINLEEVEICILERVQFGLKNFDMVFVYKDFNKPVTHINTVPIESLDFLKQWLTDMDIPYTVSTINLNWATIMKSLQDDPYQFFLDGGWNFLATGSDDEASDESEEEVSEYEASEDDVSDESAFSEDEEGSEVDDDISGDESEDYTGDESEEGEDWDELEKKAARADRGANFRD
UniProt Q04636: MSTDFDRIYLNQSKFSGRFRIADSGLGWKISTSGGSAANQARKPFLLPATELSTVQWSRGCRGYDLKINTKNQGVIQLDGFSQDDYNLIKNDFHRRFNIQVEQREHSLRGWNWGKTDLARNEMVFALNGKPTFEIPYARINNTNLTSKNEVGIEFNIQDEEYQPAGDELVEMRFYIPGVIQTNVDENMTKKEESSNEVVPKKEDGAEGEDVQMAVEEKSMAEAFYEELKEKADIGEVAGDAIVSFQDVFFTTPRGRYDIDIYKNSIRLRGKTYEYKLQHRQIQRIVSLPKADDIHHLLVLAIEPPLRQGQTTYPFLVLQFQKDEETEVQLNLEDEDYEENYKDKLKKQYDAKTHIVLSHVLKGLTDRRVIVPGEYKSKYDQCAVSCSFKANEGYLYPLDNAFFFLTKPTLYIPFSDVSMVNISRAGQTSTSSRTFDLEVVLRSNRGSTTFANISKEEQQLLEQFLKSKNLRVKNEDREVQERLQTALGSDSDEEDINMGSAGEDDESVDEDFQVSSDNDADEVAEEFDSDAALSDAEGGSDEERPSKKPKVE
UniProt P29469: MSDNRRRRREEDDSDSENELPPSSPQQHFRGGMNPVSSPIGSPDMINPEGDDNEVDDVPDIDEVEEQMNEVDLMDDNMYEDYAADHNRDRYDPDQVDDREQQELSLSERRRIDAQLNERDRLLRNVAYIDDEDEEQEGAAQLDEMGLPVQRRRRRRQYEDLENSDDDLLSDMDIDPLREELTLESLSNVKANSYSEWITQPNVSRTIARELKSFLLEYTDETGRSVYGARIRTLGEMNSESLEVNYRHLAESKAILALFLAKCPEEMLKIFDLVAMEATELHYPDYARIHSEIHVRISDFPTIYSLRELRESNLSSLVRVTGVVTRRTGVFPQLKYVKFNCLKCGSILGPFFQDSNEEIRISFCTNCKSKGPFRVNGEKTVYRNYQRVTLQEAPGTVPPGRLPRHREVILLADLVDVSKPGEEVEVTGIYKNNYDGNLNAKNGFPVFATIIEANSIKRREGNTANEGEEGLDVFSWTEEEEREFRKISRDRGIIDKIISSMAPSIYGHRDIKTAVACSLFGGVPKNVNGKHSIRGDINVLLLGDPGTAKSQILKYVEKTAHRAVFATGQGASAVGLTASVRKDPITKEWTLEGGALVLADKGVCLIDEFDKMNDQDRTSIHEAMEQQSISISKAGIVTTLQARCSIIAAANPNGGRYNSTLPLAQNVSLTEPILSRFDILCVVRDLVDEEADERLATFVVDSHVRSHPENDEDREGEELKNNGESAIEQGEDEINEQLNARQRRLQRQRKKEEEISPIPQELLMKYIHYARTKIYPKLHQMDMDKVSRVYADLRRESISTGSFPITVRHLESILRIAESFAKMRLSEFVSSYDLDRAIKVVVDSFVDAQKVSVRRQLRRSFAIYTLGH

Assay [3] has as its target T2, GST-tagged fl Csm3 (Saccharomyces cerevisiae) (UniProt Q04659).
T2 sequence: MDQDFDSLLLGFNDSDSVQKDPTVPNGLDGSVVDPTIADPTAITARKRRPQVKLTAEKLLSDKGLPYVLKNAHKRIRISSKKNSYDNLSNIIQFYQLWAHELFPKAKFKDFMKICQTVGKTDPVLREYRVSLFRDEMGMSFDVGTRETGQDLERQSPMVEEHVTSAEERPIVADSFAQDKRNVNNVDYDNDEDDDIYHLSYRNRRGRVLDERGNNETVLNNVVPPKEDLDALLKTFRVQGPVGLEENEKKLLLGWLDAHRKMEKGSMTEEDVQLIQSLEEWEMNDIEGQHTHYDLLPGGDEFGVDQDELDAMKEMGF
The description is as above.

Assay [4] deals with T3, GST-tagged Tof1_M (793-937 aa) (Saccharomyces cerevisiae) (UniProt P53840).
T3 sequence: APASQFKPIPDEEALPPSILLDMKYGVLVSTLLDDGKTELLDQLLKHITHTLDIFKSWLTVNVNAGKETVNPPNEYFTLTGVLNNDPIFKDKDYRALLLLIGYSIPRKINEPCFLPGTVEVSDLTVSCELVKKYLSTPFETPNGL
The description is as above.

These are yes or no findings as the source states them, for the method shown. For some of these results: Tags and fused reporters may be left off the sequences shown.

With “MCM-Cdt1 (from UniProt P29469 1-868; P24279 1-971; P30665 1-933; P29496 1-775; P53091 1-1017; P38132 1-845; P47112 1-604) (complex)”, in assay [1], the binding entry was “no binding (tested: 1 μM)”.
Regarding “full-length (fl) FACT (Spt16-Pob3) (from UniProt P32558 1-1035; Q04636 1-552) (complex)”, the binding entry in assay [2], in assay [3] and in assay [4] was “no binding (tested: 3 μM)” each time.

The record behind these values is publication PMC8860610.
